## Primary screen of a compound library

Source: ChEMBL document CHEMBL3988442, “University of Dundee, Small-Polar-MMV Screening Library” (2021).

T. brucei: 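Whole-parasite assay of Trypanosoma brucei over 72 hours; the read-out is not stated. Concentration: 30 µM. Direction is inferred from retests: higher values go with stronger inhibition. Values scatter widely below zero; nearly all retest evidence comes from the higher of the two concentrations used. Of about 64,000 compounds tested this way, about 940 (1.5%) reached 50% or more in at least one test.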
Leishmania in macrophages: 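Cell assay of Leishmania donovani living inside macrophages; the read-out is not stated. Tested at 30 µM. Direction is inferred from retests: higher values go with stronger inhibition. Of about 69,000 compounds tested this way, about 1,000 (1.5%) reached 50% or more in at least one test.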
Toxoplasma: 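Assay of Toxoplasma gondii numbers, read through their beta-galactosidase reporter with a colour substrate. Compounds at 10 µM. The record gives no direction; the compounds picked for IC50 retests had high values, so higher reads as fewer parasites. Size under these conditions: about 67,000 compounds, about 260 of them at 50% or above in at least one test.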

Results are given as percent effect.
The record does not define 0% and 100%; most values in the screen are far below 50% and negative numbers occur (in some assays of this library far below -100).
This is an unselected part of the compounds tested.
Two or more numbers in one place are separate tests of the same structure; such repeats can differ widely.

CCn1nc(C)cc1C(=O)Nc1cc(F)ccc1OCC1CCCO1 (centres undefined) gave T. brucei: -4.477%; Leishmania in macrophages: -4.21%; Toxoplasma: -7.738%.
CCC(=O)N1C[C@@H](C(=O)NC)[C@H](c2ccnc(N3CCCC3)n2)C1.Cl gave T. brucei: -9.39%; Leishmania in macrophages: -24.19%; Toxoplasma: -16.2%.
CC(C)COC(=O)N1CCCN(C(C)c2nc(C(C)C)no2)CC1 (centres undefined) gave T. brucei: 4.528%; Leishmania in macrophages: 12.19%; Toxoplasma: 1.04%.
CC(C)N1CCN(C(=O)Cc2csc(-c3ccco3)n2)CC1 gave T. brucei: -11.82%; Leishmania in macrophages: 10.09%; Toxoplasma: -0.5271%.
Cc1ccc(-c2cc(C(=O)N(C)Cc3noc4c3CCCC4)[nH]n2)s1 gave T. brucei: -6.213%; Leishmania in macrophages: -3.982%; Toxoplasma: 6.453%.
Cc1cc(N2CCCCC2)c(C#N)c(C)n1 gave T. brucei: 4.69%; Leishmania in macrophages: 4.865%; Toxoplasma: 3.864%.
COc1ccc(CNC[C@@]2(COc3cccnc3)C[C@@H](O)[C@@H](O)C2)cc1.Cl gave T. brucei: -51.26%; Leishmania in macrophages: 14.18%; Toxoplasma: 0.5932%.
O=C(CCN1CCCCO1)NC1CCCN(CC2CCCCC2)C1 (centres undefined) gave T. brucei: 19.11%; Leishmania in macrophages: -1.788%; Toxoplasma: -51.18%.
CCOCCN1CCN(CC(=O)N2CCC2)CC1CC (centres undefined) gave T. brucei: -1.986%; Leishmania in macrophages: 21.73%; Toxoplasma: -4.712%.
c1coc(-c2nc3c(c(NCc4n[nH]c5c4CCC5)n2)CCNCC3)c1 gave T. brucei: -54.29%; Leishmania in macrophages: 1.11%; Toxoplasma: -39.07%.
CC(c1cccnc1)N1CCN(CCO)CC1 (centres undefined) gave T. brucei: -18.48%; Leishmania in macrophages: -4.366%; Toxoplasma: -12.77%.
COC(=O)c1ccc(N2CCN(C(=O)c3ccc(=O)n(C)c3)CC2)cc1 gave T. brucei: -13.44%; Leishmania in macrophages: -2.088%; Toxoplasma: 5.281%.
O=S(=O)(NCC1CCOC1)N1CCc2ccccc2C1 (centres undefined) gave T. brucei: -10.06%; Leishmania in macrophages: 6.698%; Toxoplasma: -1.959%.
COCCC(=O)N(Cc1ccccn1)Cc1ccccc1C gave T. brucei: -0.2937%; Leishmania in macrophages: -6.108%; Toxoplasma: 10.66%.
CCS(=O)(=O)CCNC(=O)c1cc2n(n1)CCCO2 gave T. brucei: 13.83%; Leishmania in macrophages: -47.24%; Toxoplasma: -9.825%.
CC(=O)N(c1ccc(C)cc1)c1nc(CN2CCCC(C)C2)cs1 (centres undefined) gave T. brucei: 3.7%; Leishmania in macrophages: 0.548%; Toxoplasma: -10.26%.
CN1C(=O)C2(CCN(C(=O)c3cccnc3)CC2)c2cccc(F)c21 gave T. brucei: -19.51%; Leishmania in macrophages: 14.74% & -13.93%; Toxoplasma: 3.717%.
CC(C)c1ccsc1C(=O)N1CCCN(Cc2cscn2)CC1 gave T. brucei: -5.563%; Leishmania in macrophages: 35.83%; Toxoplasma: 10.22%.
Cc1ccccc1C(=O)N1CC[C@H](O)[C@@H](N2CCOCC2)CC1 gave T. brucei: 6.783%; Leishmania in macrophages: 5.268%; Toxoplasma: 22.77%.
Cc1nc(CNC(=O)Nc2ccc3c(c2)CCCN3C)sc1C gave T. brucei: -62.8%; Leishmania in macrophages: -4.989%; Toxoplasma: 2.051%.

Some entries from above, unchanged:

SMILES	T. brucei	Leishmania in macrophages	Toxoplasma
CCOCCN1CCN(CC(=O)N2CCC2)CC1CC (centres undefined)	-1.986%	21.73%	-4.712%
CCn1nc(C)cc1C(=O)Nc1cc(F)ccc1OCC1CCCO1 (centres undefined)	-4.477%	-4.21%	-7.738%